At least one compound was matched to its structure with a doubt left.
System: histone deacetylase (HDAC), HeLa nuclear extract
Assay: Deacetylase activity on nuclear extract of HeLa cells (Fluor de Lys kit)
Format: biochemical, human
Details: 0.1 μM compound, percent inhibition relative to control without inhibitor
Description: The activity of the compounds as histone deacetylase (HDAC) inhibitors was measured using an in vitro acetylation assay. The compounds were then evaluated as inhibitors of proliferation of human tumor cell cultures.
Deacetylase Activity on Nuclear Extract of Hela Cells (Human Cervical Cancer Cell)
The assay (Fluor de Lys™ kit, BioMol) is divided into two steps: in the first step the substrate which comprises an acetylated lysine residue is reacted with the nuclear extract (HeLa) containing the enzymatic activity in the presence and absence of inhibitors. In the second step a fluorogenic reagent is added which highlights the deacetylated residues. A reduction in fluorescence is obtained where there has been inhibition of the deacetylase activity.

SMILES | % inhib at 0.1 μM [%]
O=C(CCCCCN1C(=O)c2cscc2Nc2cc(Cl)c(Cl)cc21)NO [Example 17, 6-(6,7-Dichloro-10-oxo-4H,10H-2-thia-4,9-diaza-benzo[f]azulen-9-yl)-hexanoic acid hydroxyamide] | 40
COc1ccc2c(c1)Nc1ccccc1S(=O)(=O)N2CCCCCC(=O)NO [Example 21, 6-(3-Methoxy-10,10-dioxo-5,10-dihydro-10λ^6-thia-5,11-diaza-dibenzo[a,d]cyclohepten-11-yl)-hexanoic acid hydroxyamide] | 57
